Results of single-concentration screens

Measurements from “University of Dundee, Small-Polar-MMV Screening Library” (2021), ChEMBL document CHEMBL3988442.

A: 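Phenotypic screen: M. tuberculosis growth, cholesterol and DPPC medium, 4 days; the read-out is not stated. Concentration: 50 µM. Direction is inferred from retests: higher values go with more growth inhibition. Of about 69,000 compounds tested this way, about 370 (0.54%) reached 50% or more in at least one test.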
B: 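Phenotypic screen: M. tuberculosis growth, glucose 7H9 medium, 3 days; the read-out is not stated. Tested at 50 µM. Higher reads as more growth inhibition (inferred: compounds with an IC50 in retests scored well above the rest). Size under these conditions: about 69,000 compounds, about 760 of them at 50% or above in at least one test.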

The filed quantity is “Percent Effect” (%).
The controls that fix the scale are not given in the record; negative values are as filed.
The compounds are a random part of those screened.
Two or more numbers in one place are separate tests of the same structure; such repeats can differ widely.
A dash means the value is not listed here; it may have been measured.

| Compound | A | B |
|---|---|---|
| `CCCNC(=O)C(C)Nc1ccc(COCC)cc1` (centres unmarked) | -8.071% | 15.03% |
| `O=C(CCc1ccsc1)NCc1ccnc(OC2CCOCC2)c1` | 16.26% | -21.42% |
| `c1cc(C[C@H]2[C@H](N3CCOCC3)CCN2Cc2ccoc2)ccn1` | -18.81% | -5.132% and 11.15% |
| `O=C(Cc1ccc(F)cc1)N1CCN(CC(O)c2ccccc2)CC1` (centres unmarked) | 7.562% | 4.09% and -15.07% |
| `Cc1ccc(-c2nnc(C(C)NCCn3cc(C)cn3)o2)cc1` (centres unmarked) | 12.89% and 17.99% | 12.9% and -5.007% |
| `CC1CCCN1Cc1cccc(C(=O)Nc2ccc3[nH]c(=O)oc3c2)c1` (centres unmarked) | -47.18% | - |
| `O=C(NS(=O)(=O)c1cc(Cl)ccc1Cl)c1cccc2c1OCCO2` | -30.26% | 16.89% |
| `Cc1nn(C)c(C)c1CN(C(=O)c1cnc(O)cn1)C(C)C` | -7.746% | -0.1032% and 6.659% |
| `COCCc1noc(CN(C)c2nc(C)nc(C)c2C)n1` | -29.01% | 15.99% and 4.421% |
| `Cc1ncc2c(c1-c1noc(-c3cscn3)n1)CCNC2` | 12.33% | 12.47% |
| `CCc1c(C)nc2n(c1=O)CC(C(=O)Nc1nc3c(s1)CCCC3)CS2` (centres unmarked) | 8.384% | 28.28% |
| `Cc1ccccc1-c1ncc(CNCc2csc(C(C)C)n2)s1` | 13.36% and 11.81% | 26.34% |
| `CCOCC1CN(S(=O)(=O)N(C)C)Cc2cnn(CC3CC3)c21.O=C(O)C(F)(F)F` (centres unmarked) | 12.6% | 0.8989% and 10.01% |
| `O=C(c1ccc(Cl)cc1)N1CCn2c(nn(-c3ccc(Cl)cc3)c2=O)C1` | -11.77% | -5.947% |
| `COC(C)c1cccc(NCc2cccc(O)c2)c1` (centres unmarked) | 9.74% | -12.51% |
| `C=C(C)CN1CCOC(Cn2cncn2)C1` (centres unmarked) | -51.94% | -49.6% |
| `CCC(=O)N1CCC2(C=C(C(=O)N3CCCC3)c3ccccc32)CC1` | -18.29% | -15.19% |
| `COc1cccc(CC(=O)N2CCN(C)c3ncccc3C2)c1.O=C(O)C(F)(F)F` | -13.74% | 3.929% and -19.26% |
| `Cc1cc(NCCNc2cccnc2)nc(-c2ccccc2O)n1` | 39.61% | 44.59% |
| `COc1ccc(NC(=O)CN2CCCCC2C2OCCO2)cc1` (centres unmarked) | 7.81% | 8.551% and -1.87% |
| `CSCCc1c(-c2ccccc2)ncn1CC(C)(C)N1CCOCC1` | 12.3% | 21.76% |
| `O=C(CN1CCOC1=O)N1CCC2(CCc3ccccc32)CC1` | -1.775% and -15.15% | -25.72% |
| `O=C(NCCc1ccncc1)c1cccc(S(=O)(=O)N[C@@H]2CCNC2)c1` | -13.31% | -10.76% |
| `Cn1cccc(NC(=O)NCCc2cccc(O)c2)c1=O` | -27.87% | -10.9% and -15.33% |
| `OCc1c(Cl)ncn1-c1ccccc1` | -6.239% and -8.704% | -5.638% |
| `Cc1nn(C)c(Cl)c1C1CCCN1C(=O)c1ccc(C(N)=O)cn1` (centres unmarked) | -4.673% | 13.79% and -1.679% |
| `O=C(O)C(F)(F)F.O=C(c1cscn1)N1CCC2(CCN(Cc3cccs3)CC2)C1` | -17.62% | -9.014% |
| `CCc1cnc(NCCCOC2CCCC2)nc1` | 15.39% | 16.84% |
| `[H][C@@]12CCCO[C@]1([H])[C@H](N(C)Cc1cccnc1)CN2Cc1ccccn1` | -9.43% | 19.82% |
| `COC(=O)CN1CCC(C(=O)c2cc(F)ccc2F)CC1` | -1.965% | 0.1322% and -54.55% |
| `CC(C)C(NC(=O)Cn1nc2c(cc1=O)CCCC2)C(=O)O` (centres unmarked) | -6.994% | 15.77% |
| `COCCN(CC(N)=O)CC1CCCN(C2Cc3ccccc3C2)C1` (centres unmarked) | -17.22% | -44.62% |
| `O=C(NCc1nnc2n1CCCC2)N1CCc2ccccc2C1` | -21.53% | -3.59% |
| `O=C(Cc1cccs1)NCC(=O)Nc1cn[nH]c1` | -8.132% | -27.1% and -6.659% |
| `[H][C@@]12CNC(=O)N1CCN(C(=O)c1ccc3c(c1)OCO3)C2` | 0.3685% | -2.193% and -17.3% |
| `CC(C)CN(C(=O)COc1ccc(C(N)=O)cc1)C1CCN(C)CC1` | -4.651% | -21.57% |
| `COc1cc(CNCCc2cnn(C)c2)cc(OC)c1OC` | -26.98% | -3.263% |
| `Cc1csc(CNc2cnn(C(C)C)c2)n1` | 7.311% | 3.054% |
| `Cc1cccc(NCCNc2ccc(C#N)cn2)n1` | -0.889% | -2.257% |
| `Cc1ccc(Cn2nc(C)c3c(C(=O)O)c(Cl)c(C)nc32)cc1` | 10.63% | -35.41% |
| `CC[C@H]1N(CC2CCC2)CCC[C@]12CCC(=O)N2Cc1ccncc1.O=C(O)C(F)(F)F.O=C(O)C(F)(F)F` | -5.05% | -15.37% |
| `CC(Cn1cccn1)NCCS(=O)(=O)c1ccc(Cl)cc1` (centres unmarked) | -5.907% | 16.53% |
| `O=C(NCCNc1cnccn1)N1CCN(c2nccs2)CC1` | -5.877% | -3.786% |

Some entries from above, unchanged:

{"compound": "CC(C)C(NC(=O)Cn1nc2c(cc1=O)CCCC2)C(=O)O", "stereo": "centres unmarked", "A": -6.994, "B": 15.77}
{"compound": "O=C(NS(=O)(=O)c1cc(Cl)ccc1Cl)c1cccc2c1OCCO2", "A": -30.26, "B": 16.89}
{"compound": "CC[C@H]1N(CC2CCC2)CCC[C@]12CCC(=O)N2Cc1ccncc1.O=C(O)C(F)(F)F.O=C(O)C(F)(F)F", "A": -5.05, "B": -15.37}